PubChem BioAssay AID743454 – Peter MacCallum Cancer Centre, 2014
This is a random part of about 18,000 deposited reagents. 450 of them (2.5%) count as active. 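Single biological run; no consistent viability z cut-off exists, so the class columns, not z-scores, define the calls.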 Unmarked entries are inactive.

Aim: 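Knock-downs lowering viability or raising caspase 3/7 activity in vorinostat-treated resistant cells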 (primary screen)
System: human HCT116-VR colon cancer cells, selected for vorinostat resistance
Knock-down reagent: siRNA pool against human genes, 40 nM siRNA pool
Timing: vorinostat for 24 h, read-out about 72 h after transfection
Challenge: vorinostat at 2.5 µM final
Measurement: 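Two measures, CellTiter-Fluor viability and luminescent caspase 3/7 activity, each as fold change against same-plate mock wells, mean of duplicates, then screen-wide robust z-score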
Direction: viability robust z-score: higher = more viable cells than screen typical; caspase robust z-score: higher = more caspase 3/7 activity than screen typical
Hit rule: 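Hits are knock-downs in viability class RV1/RV2 or caspase class CA1/CA2, excluding ones that killed cells in the no-drug cell-count arm; hits then retested with single siRNAs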

MYO15A (myosin XVA): viability hit class = no change; caspase hit class = no change; viability robust z-score = 0.25; caspase robust z-score = 0.26
TGFB3 (transforming growth factor beta 3): viability hit class = no change; caspase hit class = no change; viability robust z-score = -0.46; caspase robust z-score = -0.18
S1PR5 (sphingosine-1-phosphate receptor 5): viability hit class = no change; caspase hit class = no change; viability robust z-score = -0.36; caspase robust z-score = -0.6
DUSP11 (dual specificity phosphatase 11): viability hit class = no change; caspase hit class = no change; viability robust z-score = 0.24; caspase robust z-score = 2.86
ODF1 (outer dense fiber of sperm tails 1): viability hit class = no change; caspase hit class = no change; viability robust z-score = 1.49; caspase robust z-score = 0.72
C9orf40 (chromosome 9 open reading frame 40): viability hit class = no change; caspase hit class = no change; viability robust z-score = -1.01; caspase robust z-score = -0.68
DUSP6 (dual specificity phosphatase 6): viability hit class = no change; caspase hit class = no change; viability robust z-score = -0.18; caspase robust z-score = -0.52

Individual results from the list:
MYO15A (myosin XVA), viability hit class → no change
Entry for DUSP11 (dual specificity phosphatase 11) under “viability hit class”: no change

Further results follow.
ADISSP (adipose secreted signaling protein): viability hit class = no change; caspase hit class = no change; viability robust z-score = -0.81; caspase robust z-score = 1.23
RHAG (Rh associated glycoprotein): viability hit class = no change; caspase hit class = no change; viability robust z-score = -0.78; caspase robust z-score = 4.37
SCO1 (synthesis of cytochrome C oxidase 1): viability hit class = no change; caspase hit class = no change; viability robust z-score = 1.17; caspase robust z-score = 0.73
FRAS1 (Fraser extracellular matrix complex subunit 1): viability hit class = no change; caspase hit class = no change; viability robust z-score = 0; caspase robust z-score = 0.06
ADAMTS1 (ADAM metallopeptidase with thrombospondin type 1 motif 1): viability hit class = no change; caspase hit class = no change; viability robust z-score = -2.13; caspase robust z-score = -0.45
CLLU1 (chronic lymphocytic leukemia up-regulated 1): viability hit class = no change; caspase hit class = no change; viability robust z-score = 0.34; caspase robust z-score = -0.1
PUM1 (pumilio RNA binding family member 1): viability hit class = no change; caspase hit class = no change; viability robust z-score = 0.45; caspase robust z-score = -0.3
